Assay results as given in patent publication US5215964A (Immunobiology Research Institute, Inc., priority 1991, dated 1993).
Some peptides are written in HELM: one residue between dots, names in brackets for other building blocks, links after the first $. * marks the point of attachment. Cbz = O=C(OCc1ccccc1)*; OBn = c1ccc(CO*)cc1

Tests used:
peptide synthesis = conditions: of theory
[1] = general procedure: Boc solid-phase peptide synthesis; benzhydrylamine resin; symmetrical anhydride; DCC-HOBt for arginine; conditions: whole synthesis, scale 5 mmoles
[2] = general procedure: Boc solid-phase peptide synthesis; p-MBHA; symmetrical anhydride; DCC-HOBt for arginine; conditions: whole synthesis, scale 0.45 mmol
[3] = Boc solid-phase peptide synthesis; p-MBHA; symmetrical anhydride; DCC-HOBt for arginine; conditions: whole synthesis, scale 0.45 mmol; run 1

Boc-Pro-Asp(OBzl)-Pro-Phe-NH2 showed a step yield (peptide synthesis; coupling step) of 95%.
Work on Cbz-RPD(OBn)PF-NH2 yielded a step yield (peptide synthesis; coupling step) of 80%.
Substance “PEPTIDE1{[Decanoyl].R.P.D.P.F.[am]}$$$$V2.0” has a crude mass [1] of 1.8 g and an isolated mass [1] of 1.19 g.
In the case of PEPTIDE1{[ac].R.P.D.P.F.[am]}$$$$V2.0, the isolated mass [2] is reported as 206 mg, the crude mass ([2]; run 1) is reported as 0.240 g and the step yield (peptide synthesis; late stage modification step) is reported as 77.9%. The crude mass [3] was 0.248 g.
